# Measured values from US20240139154A1, “Methods of Reducing Risk of Prostate Cancer Progression” (Astellas Pharma Inc., priority 2021, published 2024).
# No dose or concentration is given here for some results.
# Experiment: ENACT study: health-related quality of life, patient-reported outcomes (BFI, EPIC, SF-12, MAX-PC)
# Format: in vivo, human
structure (smiles),measurement,setting,value
"CNC(=O)c1ccc(N2C(=S)N(c3ccc(C#N)c(C(F)(F)F)c3)C(=O)C2(C)C)cc1F [enzalutamide, Enzalutamide]",EPIC sexual function score,6 months,33.4±22.2
same,"BFI, mean",Month 12,2.5
same,"EPIC hormonal, mean",Month 12,57.7
same,"EPIC sexual, mean",Month 12,30.2
same,"EPIC urinary, mean",Month 12,85.2
same,"MAX-PC, mean",Month 12,16.5
same,"SF-12 mental, mean",Month 12,52.0
same,"SF-12 physical, mean",Month 12,49.4
same,"BFI, mean",Month 24,1.6
same,"EPIC hormonal, mean",Month 24,57.9
same,"EPIC sexual, mean",Month 24,47.7
same,"EPIC urinary, mean",Month 24,88.3
same,"MAX-PC, mean",Month 24,16.3
same,"SF-12 mental, mean",Month 24,54.4
same,"SF-12 physical, mean",Month 24,51.0
